Data from patent US8535931B2, “Non-photosynthetic micro-organisms enriched with organic selenium from seleno-hydroxyacid compounds and applications thereof in the field of nutrition, cosmetics and pharmacueuticals” (priority 2008, dated 2013).
At least one compound was matched to its structure with a doubt left.

Test system: Lactobacillus paracasei 3052-E000
Format: cell-based
Settings: 2 mg/L (in selenium equivalent)
Method: In this experiment, the growth characteristics of the bacterium Lactobacillus paracasei were measured in the presence of different concentrations of selenium in the form of sodium selenite, selenomethionine, 2-hydroxy-4-methylseleno-butanoic acid and compared with the growth characteristics in the absence of additives.
The pre-culture of the strain Lactobacillus paracasei 3052-E000 is carried out in liquid MRS medium, at 42° C., without agitation for 24 h. The culture of the strain Lactobacillus paracasei 3052-E000 was carried out from an inoculum (1.10^7 UFC/ml) of the above pre-culture in 100 mL of MRS medium, at pH=6.4 and at a temperature of 42° C. (without agitation).
The cultures were monitored by absorbance measurements at 550 nm and CFU counting carried out on MRS plate.
The concentrations tested for the addition of selenium selenite are 0.5 mg/L, 2 mg/L, 10 mg/L and 20 mg/L in selenium equivalent, i.e. respectively 1.11 mg/L, 4.44 mg/L, 22.22 mg/L and 44.44 mg/L of sodium selenite. The graph of FIG. 4 makes it possible to visualise the growth of the strain Lactobacillus paracasei 3052-E000 in the presence of sodium selenite.
The concentrations tested for the addition of selenomethionine are 0.5 mg/L, 2 mg/L, 10 mg/L and 20 mg/L in selenium equivalent, i.e. respectively 1.25 mg/L, 5 mg/L, 25 mg/L and 50 mg/L of selenomethionine. […]

O=[Se](O)O [sodium selenite]
effects on growth and biomass production yield: accentuated
